# These are yes or no findings as the source states them, for the method shown.
# Protein sequences, listed by entry. Tags and fused reporters are not part of them. Residues count along the entry.
# UniProt O54819, residues 29-217: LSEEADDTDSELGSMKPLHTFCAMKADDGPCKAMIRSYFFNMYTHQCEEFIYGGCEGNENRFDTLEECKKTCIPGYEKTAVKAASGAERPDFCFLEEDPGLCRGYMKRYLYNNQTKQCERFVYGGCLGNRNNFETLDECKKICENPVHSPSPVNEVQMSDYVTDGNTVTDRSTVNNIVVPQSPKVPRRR
# UniProt P10646, residues 29-209: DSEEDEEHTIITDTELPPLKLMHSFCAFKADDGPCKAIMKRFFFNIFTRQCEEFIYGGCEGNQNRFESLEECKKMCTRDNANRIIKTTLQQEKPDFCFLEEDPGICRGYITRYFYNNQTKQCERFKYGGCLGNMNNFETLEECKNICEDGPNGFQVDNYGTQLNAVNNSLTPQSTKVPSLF
# UniProt P18177: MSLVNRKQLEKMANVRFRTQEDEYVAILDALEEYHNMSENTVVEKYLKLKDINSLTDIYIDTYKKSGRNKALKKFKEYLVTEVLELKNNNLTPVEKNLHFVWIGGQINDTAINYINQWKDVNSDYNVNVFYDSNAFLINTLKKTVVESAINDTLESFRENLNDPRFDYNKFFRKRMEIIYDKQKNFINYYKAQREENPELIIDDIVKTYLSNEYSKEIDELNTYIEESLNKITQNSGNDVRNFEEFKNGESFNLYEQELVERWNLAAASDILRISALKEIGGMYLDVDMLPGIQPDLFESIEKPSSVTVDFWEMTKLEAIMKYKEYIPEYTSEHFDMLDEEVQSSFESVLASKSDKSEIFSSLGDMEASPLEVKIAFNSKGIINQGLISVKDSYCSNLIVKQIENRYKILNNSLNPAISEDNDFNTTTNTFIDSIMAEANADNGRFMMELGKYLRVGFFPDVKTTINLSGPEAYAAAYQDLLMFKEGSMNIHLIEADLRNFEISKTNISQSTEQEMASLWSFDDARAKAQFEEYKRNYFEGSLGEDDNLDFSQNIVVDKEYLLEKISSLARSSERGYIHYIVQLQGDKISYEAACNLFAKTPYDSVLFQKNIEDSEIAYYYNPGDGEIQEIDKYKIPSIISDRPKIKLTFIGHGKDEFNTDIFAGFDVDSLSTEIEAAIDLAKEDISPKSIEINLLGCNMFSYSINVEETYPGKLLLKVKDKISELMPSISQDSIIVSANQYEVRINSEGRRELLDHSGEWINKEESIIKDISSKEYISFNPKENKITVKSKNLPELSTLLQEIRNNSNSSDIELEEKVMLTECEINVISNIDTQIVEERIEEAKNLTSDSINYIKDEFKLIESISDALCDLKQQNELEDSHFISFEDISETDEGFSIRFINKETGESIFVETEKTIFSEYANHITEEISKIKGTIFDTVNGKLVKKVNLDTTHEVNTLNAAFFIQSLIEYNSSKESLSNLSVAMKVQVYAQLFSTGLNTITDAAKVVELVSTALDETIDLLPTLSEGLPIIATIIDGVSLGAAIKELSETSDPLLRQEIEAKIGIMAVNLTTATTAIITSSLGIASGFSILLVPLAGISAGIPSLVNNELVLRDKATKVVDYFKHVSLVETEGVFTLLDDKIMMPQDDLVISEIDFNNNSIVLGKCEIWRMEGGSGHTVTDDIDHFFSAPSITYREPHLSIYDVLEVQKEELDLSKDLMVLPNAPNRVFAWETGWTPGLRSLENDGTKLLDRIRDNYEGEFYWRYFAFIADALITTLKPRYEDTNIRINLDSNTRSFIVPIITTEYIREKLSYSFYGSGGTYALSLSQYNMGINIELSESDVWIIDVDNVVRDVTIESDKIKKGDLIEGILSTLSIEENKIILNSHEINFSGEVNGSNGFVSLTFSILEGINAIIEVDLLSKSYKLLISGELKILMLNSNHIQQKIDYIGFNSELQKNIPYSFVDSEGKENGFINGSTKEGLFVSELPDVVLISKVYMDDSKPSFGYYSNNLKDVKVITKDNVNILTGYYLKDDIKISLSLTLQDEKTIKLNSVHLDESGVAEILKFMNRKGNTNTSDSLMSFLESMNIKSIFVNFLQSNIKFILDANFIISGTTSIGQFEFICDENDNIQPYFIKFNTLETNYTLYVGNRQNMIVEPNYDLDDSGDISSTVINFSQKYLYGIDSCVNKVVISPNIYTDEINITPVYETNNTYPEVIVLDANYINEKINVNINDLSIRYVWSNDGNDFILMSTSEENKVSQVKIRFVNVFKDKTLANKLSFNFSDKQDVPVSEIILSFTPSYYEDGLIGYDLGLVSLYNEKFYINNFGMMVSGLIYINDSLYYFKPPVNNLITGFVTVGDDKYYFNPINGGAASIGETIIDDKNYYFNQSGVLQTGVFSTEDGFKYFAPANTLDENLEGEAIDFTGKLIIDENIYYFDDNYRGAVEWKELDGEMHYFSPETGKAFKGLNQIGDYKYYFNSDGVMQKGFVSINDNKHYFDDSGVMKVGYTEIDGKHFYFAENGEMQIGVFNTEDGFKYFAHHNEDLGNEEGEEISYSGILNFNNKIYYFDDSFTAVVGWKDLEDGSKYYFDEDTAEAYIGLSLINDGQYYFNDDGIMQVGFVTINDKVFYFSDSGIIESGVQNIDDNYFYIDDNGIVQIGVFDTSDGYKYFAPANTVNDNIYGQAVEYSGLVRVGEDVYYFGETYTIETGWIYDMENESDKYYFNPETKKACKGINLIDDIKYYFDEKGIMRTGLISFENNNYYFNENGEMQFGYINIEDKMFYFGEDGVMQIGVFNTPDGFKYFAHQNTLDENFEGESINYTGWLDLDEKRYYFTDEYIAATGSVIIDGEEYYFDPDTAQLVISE
# Tests used:
# [1] = biological target: mTFPI-Fc (Fc-tagged mouse TFPI) (mouse) (UniProt O54819); experiment: BLI; […] (10 ug/mL) […] (BLItz, ForteBio), […] (0.5% BSA); […]; dissociation in DPBS (0.5% BSA); both purified
# [2] = biological target: TFPI-Fc (human IgG-Fc-tagged TFPI without the GPI anchor) (UniProt P10646); experiment: as above
substance,measurement,setting,value
TcdB1.1 (recombinant toxin B of reference strain VPI10463) (from UniProt P18177 1-2366),binding,[1],no binding
same,binding,[2],no binding
